# Assay results: PubChem BioAssay AID493014 (National Center for Advancing Translational Sciences (NCATS), 2011)
# The list shows a part of the results. The main result of the screen is listed elsewhere. These columns were measured beside it and carry no call. The list favours compounds with an active or inconclusive main result. The note in brackets gives the kind of curve behind each potency; many fits are weak.
# Test: qHTS Assay to Find Inhibitors of Chronic Active B-Cell Receptor Signaling
# Settings: ABC-DLBCL IkBa-CBG/CBR reporter, luminescence ratio (green luciferase fused to IkBa over red control in TMD8 lymphoma cells), 4 h
# Summary of the method: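 Concentration-response series (up to 46 uM) were applied to TMD8 dual-reporter cells for 4 h at 37C with doxycycline. Green/red ratio, after filter-overlap correction, defined %Activity; red signal alone was normalised to basal cells and zero luminescence.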
# [1] = measured here: CBR red luminescence, cell number
# [2] = measured here: IkBa-CBG green luminescence
Structure (SMILES),AC50 [1],AC50 [2]
CC(C)CC(NC(=O)c1ccccc1NC(=O)c1ccccc1)C(=O)O (stereo not given),"35.5 µM [falling, single point]",–
Cc1cc(C(c2ccc(C)o2)c2ccc(C)o2)c(O)c([N+](=O)[O-])c1,"20.6 µM [falling, single point]",–
S=C(NCCc1ccccc1)Nc1ccccn1,"13 µM [rising, partial curve, poor fit]",–
O=C(OCc1c(Cl)cccc1Cl)c1cccnc1,"4.11 µM [rising, full curve, poor fit]",–
NS(=O)(=O)c1cc2c(cc1Cl)NC(CSCc1ccccc1)=NS2(=O)=O,"23.1 µM [rising, single point]",–
Cc1csc(NC(=O)c2cccn2C)n1,"3.16 µM [rising, single point]","7.08 µM [rising, partial curve, poor fit]"
C/C(=N\N)c1c(-c2ccccc2)c2cc(C)ccc2[nH]c1=O,"17.8 µM [rising, single point]",–
Cc1ccn2c(C(=O)N/N=C\c3ccc4c(c3)OCO4)c(C)nc2c1,"3.26 µM [rising, full curve]",–
CCN(CC)c1ccc(/C=N/NC(=O)c2ccc3c(c2)OCCO3)cc1,"5.01 µM [falling, full curve]",–
COc1cc(C)c(N)cc1C(C)C,"29.1 µM [rising, single point]",–
O=C(O)CCSc1nc2ccccc2n1-c1ccccc1,"3.98 µM [rising, full curve]",–
COc1cccc(OCCOCCN(C)CCO)c1,"20.6 µM [rising, single point]",–
Cc1c(NC(=O)C2CC=CCC2C(=O)O)c(=O)n(-c2ccccc2)n1C (stereo not given),"2.31 µM [rising, partial curve]",–
O=C(COC(=O)c1c[nH]c2ccccc12)Nc1ccccc1,"23.1 µM [falling, single point]",–
CCN(CC)S(=O)(=O)c1cc(NC(=O)C(C)N2CCN(c3ccccn3)CC2)ccc1C (stereo not given),"35.5 µM [falling, single point]",–
CCOC(=O)c1cccc(NC(=O)c2ccc3c(c2)OCO3)c1,"3.98 µM [falling, full curve]",–
COc1ccc(C(=O)Nc2cccc(-c3cc4ccccc4oc3=O)c2)cc1[N+](=O)[O-],"23.1 µM [rising, single point]",–
Cc1nnc(SCC(=O)Nc2sccc2C#N)s1,"3.98 µM [rising, single point]",–
O=C(COC(=O)Cn1nnc2ccccc21)NC1CCCC1,"6.31 µM [rising, partial curve, poor fit]",–
OC(CN1CCN(c2ccccn2)CC1)Cn1c2ccccc2c2ccccc21 (stereo not given),"0.13 µM [falling, single point]",–
COc1ccc(S(=O)(=O)N2CCC(C(=O)Nc3ccccc3N3CCCC3)CC2)cc1OC,"0.1 µM [rising, full curve, poor fit]",–

Structure (SMILES),AC50 [1],AC50 [2]
COc1ccc2nccc(/C=C/c3ccnc4ccc(OC)cc34)c2c1,"11.2 µM [falling, single point]",–
C(=N\N=C\c1ccccc1)/c1ccccc1,"1.26 µM [rising, full curve, poor fit]",–
COc1ccc(C2=NN(C(=O)c3ccccc3)C(c3ccc(OC)c(OC)c3)C2)cc1OC (stereo not given),–,"3.16 µM [falling, partial curve, poor fit]"
COc1ccc(/C=C/C(=O)c2ccc(C(=O)/C=C/c3ccc(OC)c(OC)c3)cc2)cc1OC,–,"12.6 µM [falling, partial curve]"
O=C(O)c1ccc(/C=N\Nc2ccc(S(=O)(=O)N3CCOCC3)cc2[N+](=O)[O-])cc1,"1 µM [rising, full curve, poor fit]",–
CC1CCCCC1NCC#CCOc1ccc(Cl)cc1 (stereo not given),"22.4 µM [falling, single point]",–
CC1CC(=O)NN=C1c1ccc(NCCO)c([N+](=O)[O-])c1 (stereo not given),"23.1 µM [rising, partial curve, poor fit]",–
CC(C)Oc1nnnn1-c1ccccc1,"35.5 µM [rising, single point]",–
CCc1nc(N)c(C#N)c(-c2ccc(OC)c(OC)c2)c1C,"0.461 µM [rising, full curve, poor fit]",–
CCc1cc(C(=O)N=Nc2c(O)[nH]c3ccc([N+](=O)[O-])cc23)c2ccccc2n1,"20.6 µM [falling, partial curve]","29.1 µM [rising, partial curve, poor fit]"
CCOc1ccc(/C=N/NC(=O)c2cc3c(OC)cc(OC)cc3[nH]2)cc1OC,"7.08 µM [falling, full curve, poor fit]",–
COc1ccc(OCCCC(=O)Nc2ccc(OC)c(S(=O)(=O)N3CCOCC3)c2)cc1,"3.66 µM [rising, single point]",–
CC(C)NC(=S)NNc1nc2ccccc2s1,"17.8 µM [rising, partial curve, poor fit]",–
COc1ccccc1C(=O)Nc1ccon1,"13 µM [falling, partial curve, poor fit]",–
Cc1cccc(Nc2ccc(C(=O)N3CCOCC3)cn2)c1,"5.62 µM [rising, single point]",–
O=C(CCCCCN1C(=O)c2ccccc2C1=O)NCc1ccccn1,"10 µM [rising, partial curve, poor fit]",–
COc1nc(NCC(C)C)nc(Oc2ccc(OCc3ccccc3)nn2)n1,–,"7.31 µM [falling, partial curve, poor fit]"
COCCn1c(SCc2ccccc2)nc2c1c(=O)[nH]c(=O)n2C,"14.1 µM [rising, single point]",–
O=Cc1cn(-c2ccccc2)nc1-c1ccc(F)cc1,"7.08 µM [rising, partial curve]",–
COc1ccc(C/C(C)=N/NC(=S)Nc2ccccc2F)cc1,"22.4 µM [falling, partial curve, poor fit]","35.5 µM [falling, single point]"
COCCNCCOCCOc1ccc(Cl)c(C)c1,"32.6 µM [falling, partial curve, poor fit]",–

# Single records, from the list above. Order of values: AC50 [1]	AC50 [2]
# `O=C(OCc1c(Cl)cccc1Cl)c1cccnc1` is entered as 4.11 µM [rising, full curve, poor fit]	–
# `CC(C)Oc1nnnn1-c1ccccc1` is entered as 35.5 µM [rising, single point]	–
# `Cc1c(NC(=O)C2CC=CCC2C(=O)O)c(=O)n(-c2ccccc2)n1C` (stereo not given) is entered as 2.31 µM [rising, partial curve]	–
